The list is a part of this screen's results and no random one: it gathers tests that were run many times, whatever their T/C, doses with no T/C, and many T/C values between a quarter and a half above the control. Other doses and runs of a compound stand elsewhere. T/C: endpoint of the treated group in % of that of the vehicle group. Some doses have a count of surviving animals in place of a T/C: the source files T/C as zero there, which appears to mark a toxic dose or a test without result, not a measured value. Some survivor counts are full or nearly so, which does not show that the dose was tolerated: survival well below the control is almost never listed, so the zero probably covers shortened survival too. Survivors were counted at the toxicity check, usually on the fifth day, unless a day is given; later deaths do not show. Schedules are NCI's codes, read here as Q, the interval in days (D) or hours (H), X, the number of doses. Some schedules carry Z or #; the key to these is not given.

This experiment concerns L1210 leukemia ip in BDF1 mice, survival T/C. The experiment in a line: NCI In Vivo Anticancer Drug Screen. Data for tumor model L1210 Leukemia (intraperitoneal) in B6D2F1 (BDF1) mice. The following applies: T/C endpoint: mean survival time, higher T/C = longer survival.
[1] abbreviates: dose: 400.0 mg/kg/injection, schedule: Q04DX002 (ip), vehicle: Klucel (hydroxypropylcellulose) (HPC).
The mark [2] stands for this setting: dose: 50.0 mg/kg/injection, schedule: Q01DX009 (ip), vehicle: saline with Tween-80.
The mark [3] stands for this setting: dose: 100.0 mg/kg/injection, schedule: Q04DX003 (ip), vehicle: saline with Tween-80.
[4] abbreviates: dose: 200.0 mg/kg/injection, schedule: Q04DX003 (ip), vehicle: saline with Tween-80.
[5] abbreviates: dose: 400.0 mg/kg/injection, schedule: Q04DX003 (ip), vehicle: saline with Tween-80.
The mark [6] stands for this setting: dose: 100.0 mg/kg/injection, schedule: Q04DX003 (ip), vehicle: saline.
Setting [7] is: dose: 200.0 mg/kg/injection, schedule: Q04DX003 (ip), vehicle: saline.
Setting [8] is: dose: 200.0 mg/kg/injection, schedule: Q01DX009 (ip), vehicle: saline with Tween-80.

Regarding `NNc1nnnc2ccccc12`, the survivor count is, setting by setting: (dose: 40.0 mg/kg/injection, schedule: Q01DX001 (ip), vehicle: Klucel (hydroxypropylcellulose) (HPC)) 3 of 6; (dose: 80.0 mg/kg/injection, schedule: Q01DX001 (ip), vehicle: Klucel (hydroxypropylcellulose) (HPC)) 0 of 6; (dose: 100.0 mg/kg/injection, schedule: Q01DX001 (ip), vehicle: Klucel (hydroxypropylcellulose) (HPC)) 0 of 6; (dose: 200.0 mg/kg/injection, schedule: Q01DX001 (ip), vehicle: Klucel (hydroxypropylcellulose) (HPC)) 0 of 6; (dose: 400.0 mg/kg/injection, schedule: Q01DX001 (ip), vehicle: Klucel (hydroxypropylcellulose) (HPC)) 1 of 6.

Take `CCCCN(CCCC)C(=O)c1ccccc1C(=O)O`: under setting [1], the survivor count is listed as 0 of 3.

For `NC(=O)/C=C/C(=O)O` (tested in a mixture with another compound), for the setting “dose: 250.0 mg/kg/injection, schedule: Q#A X Z (ip), vehicle: saline”, the survivor count is reported as 1 of 6.

As to `CC1(C)N=C(N)N=C(N)N1c1ccc(CCCCc2ccc(S(=O)(=O)F)cc2)cc1`, the survivor count (dose: 200.0 mg/kg/injection, schedule: Q01DX009 (ip), vehicle: saline) was 0 of 6 and the survivor count (dose: 400.0 mg/kg/injection, schedule: Q01DX009 (ip), vehicle: saline) is on record as 0 of 6.

Turning to `CNO`, where the note is “dose: 400.0 mg/kg/injection, schedule: Q01DX009 (ip), vehicle: Klucel (hydroxypropylcellulose) (HPC)”, the survivor count was 0 of 6.

Regarding `S=c1c2[nH]cnc2ncn1C1CCCCC1`, the survivor count reads like this: (dose: 15.0 mg/kg/injection, schedule: Q01DX009 (ip), vehicle: saline with Tween-80) 1 of 6; (dose: 22.0 mg/kg/injection, schedule: Q01DX009 (ip), vehicle: saline with Tween-80) 2 of 6; (dose: 33.5 mg/kg/injection, schedule: Q01DX009 (ip), vehicle: saline with Tween-80) 0 of 6; under setting [2], 0 of 6.

For `CC[P+](c1ccccc1)(c1ccccc1)c1ccccc1`, the survivor count (dose: 5.0 mg/kg/injection, schedule: Q04DX003 (ip), vehicle: saline) is 6 of 6; the survivor count (dose: 10.0 mg/kg/injection, schedule: Q04DX003 (ip), vehicle: saline) is 1 of 6; the survivor count (dose: 20.0 mg/kg/injection, schedule: Q04DX003 (ip), vehicle: saline) is reported as 1 of 6.

For the molecule `C[N+](C)(C)c1ccc(NC(=O)c2ccc(C(=O)Nc3ccc([N+](C)(C)C)cc3)cc2)cc1`, the survivor count by setting is: (dose: 4.0 mg/kg/injection, schedule: Q01DX Z (ip), vehicle: saline) 0 of 6; (dose: 8.0 mg/kg/injection, schedule: Q01DX Z (ip), vehicle: saline) 0 of 6; (dose: 15.0 mg/kg/injection, schedule: Q01DX Z (ip), vehicle: saline) 0 of 6; (dose: 30.0 mg/kg/injection, schedule: Q01DX Z (ip), vehicle: saline) 0 of 6; (dose: 60.0 mg/kg/injection, schedule: Q01DX Z (ip), vehicle: saline) 0 of 6; (dose: 120.0 mg/kg/injection, schedule: Q01DX Z (ip), vehicle: saline) 0 of 6.

As to `Cc1nc(N)c(N)nc1C`, the survivor count is on record as 3 of 6 (dose: 100.0 mg/kg/injection, schedule: Q01DX009 (ip), vehicle: saline with Tween-80) and 3 of 6 under setting [3].

Take `CCC[CH2][Sn]([CH2]CCC)([n]1cncn1)[n]1cncn1`: the survivor count runs as follows: (dose: 100.0 mg/kg/injection, schedule: Q04DX002 (ip), vehicle: saline with Tween-80) 0 of 3; under setting [3], 0 of 6; (dose: 200.0 mg/kg/injection, schedule: Q04DX002 (ip), vehicle: saline with Tween-80) 0 of 3; under setting [4], 0 of 6; (dose: 400.0 mg/kg/injection, schedule: Q04DX002 (ip), vehicle: saline with Tween-80) 0 of 3; under setting [5], 0 of 6.

On to `c1cnc2cc3oc4ccccc4c3cc2c1`, for which the survivor count is listed as 3 of 6 under setting [6]; 0 of 6 under setting [7]; 0 of 6 (dose: 400.0 mg/kg/injection, schedule: Q04DX003 (ip), vehicle: saline).

Turning to `[Cl][Cd][Cl].c1ccc(N=P(c2ccccc2)(c2ccccc2)c2ccccc2)cc1`, the survivor count is listed as 1 of 6 (dose: 18.75 mg/kg/injection, schedule: Q01DX001 (ip), vehicle: other); 2 of 6 (dose: 37.5 mg/kg/injection, schedule: Q01DX001 (ip), vehicle: other); 0 of 6 (dose: 75.0 mg/kg/injection, schedule: Q01DX001 (ip), vehicle: other); 0 of 6 (dose: 150.0 mg/kg/injection, schedule: Q01DX001 (ip), vehicle: other); 0 of 6 (dose: 300.0 mg/kg/injection, schedule: Q01DX001 (ip), vehicle: other).

On to `Cc1ccc(S(=O)(=O)NC(=O)N(Cc2ccccc2)C(C)(C)C)cc1`, for which the survivor count (dose: 100.0 mg/kg/injection, schedule: Q01DX009 (ip), vehicle: Klucel (hydroxypropylcellulose) (HPC)) is recorded as 3 of 6.

On to `CC(=O)c1cc(O)ccc1O`, for which the survivor count under setting [8] is 3 of 6.

`CN(C)CCCC1(O)c2ccccc2Sc2cc(Cl)ccc21` (stereo not given): the survivor count by setting is: (dose: 100.0 mg/kg/injection, schedule: Q04DX002 (ip), vehicle: Klucel (hydroxypropylcellulose) (HPC)) 3 of 3; (dose: 200.0 mg/kg/injection, schedule: Q04DX002 (ip), vehicle: Klucel (hydroxypropylcellulose) (HPC)) 3 of 3; under setting [1], 0 of 3.

For `OC12CC(C(F)(F)F)(C(F)(F)F)OC1(O)CC(C(F)(F)F)(C(F)(F)F)O2` (stereo not given), under setting [5], the survivor count is 0 of 6.

With `N#CC1(C#N)C2C=CC(C3CC=CC32)C1(C#N)C#N` (stereo not given), the survivor count is 2 of 6 under setting [2], 4 of 6 under setting [3], 5 of 6 under setting [4] and 0 of 6 under setting [5].

Regarding `CCOC(=O)CSc1nc2nc(Cl)c(Cl)nc2[nH]1`, the survivor count (dose: 400.0 mg/kg/injection, schedule: Q01DX009 (ip), vehicle: saline with Tween-80) is 3 of 6.

For `CCc1ccc(/C=C\c2ccc(O)c(O)c2)[n+](C)c1`, the survivor count is 0 of 6 (dose: 60.0 mg/kg/injection, schedule: Q01DX001 (ip), vehicle: saline); 0 of 6 (dose: 75.0 mg/kg/injection, schedule: Q01DX001 (ip), vehicle: saline); 0 of 6 (dose: 150.0 mg/kg/injection, schedule: Q01DX001 (ip), vehicle: saline); 0 of 6 (dose: 300.0 mg/kg/injection, schedule: Q01DX001 (ip), vehicle: saline).

On to `Nc1c2ccccc2nc2ccccc12`, for which the survivor count under setting [5] was 3 of 3.

For `O=C1NC(c2ccccc2)C(=O)N1CCN(CCCl)CCCl` (stereo not given), the survivor count by setting is: (dose: 25.0 mg/kg/injection, schedule: Q01DX009 (ip), vehicle: saline) 3 of 6; (dose: 50.0 mg/kg/injection, schedule: Q04DX003 (ip), vehicle: saline) 6 of 6; under setting [6], 3 of 6; under setting [7], 1 of 6.

Take `COc1cc2c(cc1[N+](=O)[O-])C(=O)CCCC2`: under setting [8], the survivor count was 3 of 3.
